From publication PMC11406361, “Several orphan solute carriers functionally identified as organic cation transporters: Substrates specificity compared with known cation transporters” (The Journal of Biological Chemistry, 2024)

By UniProt entry, the sequences of proteins in these tests, tags left out. Where a name states a change or a piece, a line headed by the entry shows the natural chain unless it says otherwise.
UniProt Q8N808: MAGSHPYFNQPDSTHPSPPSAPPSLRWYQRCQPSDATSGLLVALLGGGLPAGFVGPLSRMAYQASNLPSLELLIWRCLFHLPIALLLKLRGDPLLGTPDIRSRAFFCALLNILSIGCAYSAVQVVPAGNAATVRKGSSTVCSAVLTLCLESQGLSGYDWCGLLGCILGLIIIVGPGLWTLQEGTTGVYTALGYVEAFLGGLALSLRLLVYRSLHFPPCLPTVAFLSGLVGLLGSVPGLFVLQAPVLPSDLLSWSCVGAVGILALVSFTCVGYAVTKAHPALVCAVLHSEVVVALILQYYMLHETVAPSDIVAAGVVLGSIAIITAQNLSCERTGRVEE

Molecular target: SLC35G3 (Homo sapiens, UniProt Q8N808)
Assay: Uptake ratio screen, SLC35G3-overexpressing HEK293 over empty vector cells
Type: cell-based
Set-up: by amplifying the entire gene-of-interest within the HEK293 genome via a long-range PCR
Details: 2.5 μM substrate, 2 min

CN1CCC[C@@H]1CCO[C@](C)(c1ccccc1)c1ccc(Cl)cc1 [Clemastine]
Uptake data for SLC35G3, mean value (fold-increase over empty vector control): 1.22
